Results reported in paper PMC7473771.
These are yes or no findings as the source states them, for the method shown. In cells and extracts the contact can be indirect. These calls come from enrichment with a bait or labelling near it, and not all partners need be listed.

The chains behind the UniProt entries cited, without tags or fusion partners. Where a name states a change or a piece, a line headed by the entry shows the natural chain unless it says otherwise. A line that says so, or that is headed by a name, gives the form on record, which may keep a tag or linker.
UniProt Q9NSY1: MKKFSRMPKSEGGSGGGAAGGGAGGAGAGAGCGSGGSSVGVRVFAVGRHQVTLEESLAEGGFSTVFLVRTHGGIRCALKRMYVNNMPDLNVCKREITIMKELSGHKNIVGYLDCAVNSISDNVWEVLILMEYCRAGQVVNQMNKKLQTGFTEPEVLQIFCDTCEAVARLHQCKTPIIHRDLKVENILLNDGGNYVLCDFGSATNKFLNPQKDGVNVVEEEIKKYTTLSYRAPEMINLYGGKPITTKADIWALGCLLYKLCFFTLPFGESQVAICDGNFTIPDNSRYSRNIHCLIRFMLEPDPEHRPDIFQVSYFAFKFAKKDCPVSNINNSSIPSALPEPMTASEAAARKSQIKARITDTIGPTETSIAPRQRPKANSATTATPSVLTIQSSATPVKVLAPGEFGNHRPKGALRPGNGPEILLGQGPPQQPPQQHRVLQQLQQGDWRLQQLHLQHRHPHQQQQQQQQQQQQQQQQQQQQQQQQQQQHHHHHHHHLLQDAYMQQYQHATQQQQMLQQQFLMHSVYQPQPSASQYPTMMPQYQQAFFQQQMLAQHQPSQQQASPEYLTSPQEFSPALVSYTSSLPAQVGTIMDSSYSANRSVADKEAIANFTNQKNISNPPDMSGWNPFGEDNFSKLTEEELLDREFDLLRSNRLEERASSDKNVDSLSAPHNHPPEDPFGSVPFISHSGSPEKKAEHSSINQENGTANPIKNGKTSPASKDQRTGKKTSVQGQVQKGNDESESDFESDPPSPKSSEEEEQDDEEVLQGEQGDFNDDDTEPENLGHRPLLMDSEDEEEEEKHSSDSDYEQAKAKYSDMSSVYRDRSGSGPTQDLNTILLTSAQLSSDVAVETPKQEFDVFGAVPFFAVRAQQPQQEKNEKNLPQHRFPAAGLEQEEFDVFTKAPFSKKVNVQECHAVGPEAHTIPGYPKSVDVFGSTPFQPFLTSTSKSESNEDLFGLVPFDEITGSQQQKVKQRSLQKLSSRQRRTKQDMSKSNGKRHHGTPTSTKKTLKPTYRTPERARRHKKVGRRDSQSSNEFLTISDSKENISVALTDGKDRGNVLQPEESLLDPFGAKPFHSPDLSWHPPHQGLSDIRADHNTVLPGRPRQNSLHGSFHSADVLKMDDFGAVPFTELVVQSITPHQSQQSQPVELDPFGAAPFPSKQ
Myc-BirA*-BMP2K-S (Q9NSY1, form named): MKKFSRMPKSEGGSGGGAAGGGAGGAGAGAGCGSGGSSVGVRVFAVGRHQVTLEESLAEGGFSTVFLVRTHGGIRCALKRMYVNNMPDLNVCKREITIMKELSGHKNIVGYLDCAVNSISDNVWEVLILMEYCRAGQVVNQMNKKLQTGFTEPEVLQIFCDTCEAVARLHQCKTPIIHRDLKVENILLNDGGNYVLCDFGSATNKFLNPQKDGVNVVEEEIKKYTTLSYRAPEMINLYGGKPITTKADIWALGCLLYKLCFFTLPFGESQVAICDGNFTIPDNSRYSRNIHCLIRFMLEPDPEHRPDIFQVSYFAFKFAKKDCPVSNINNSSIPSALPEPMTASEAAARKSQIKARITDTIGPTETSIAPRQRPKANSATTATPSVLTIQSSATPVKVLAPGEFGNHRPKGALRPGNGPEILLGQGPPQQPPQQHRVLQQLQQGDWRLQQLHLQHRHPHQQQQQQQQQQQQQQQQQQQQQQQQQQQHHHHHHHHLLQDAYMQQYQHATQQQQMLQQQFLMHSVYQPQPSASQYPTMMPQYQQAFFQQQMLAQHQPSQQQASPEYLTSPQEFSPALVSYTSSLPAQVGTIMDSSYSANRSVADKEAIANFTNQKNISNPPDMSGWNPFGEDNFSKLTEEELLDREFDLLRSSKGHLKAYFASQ
UniProt Q8N6T3: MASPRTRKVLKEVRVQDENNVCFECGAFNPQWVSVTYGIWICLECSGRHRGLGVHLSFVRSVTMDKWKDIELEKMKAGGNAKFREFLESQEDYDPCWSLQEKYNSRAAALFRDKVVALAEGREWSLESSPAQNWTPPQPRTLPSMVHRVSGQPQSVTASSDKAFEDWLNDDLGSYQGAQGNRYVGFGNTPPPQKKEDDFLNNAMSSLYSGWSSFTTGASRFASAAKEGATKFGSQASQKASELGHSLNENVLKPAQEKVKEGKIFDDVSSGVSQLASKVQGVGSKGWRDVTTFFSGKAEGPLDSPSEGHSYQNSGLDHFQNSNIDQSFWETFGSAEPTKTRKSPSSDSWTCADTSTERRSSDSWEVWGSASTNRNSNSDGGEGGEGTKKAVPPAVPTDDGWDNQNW

How the values were obtained:
Test in all cases: proximity labelling; BioID: BMP2K-L or -S tagged with BirA* at the N- or C-terminus, stably expressed in HEK293 cells; biotin labelling, pull down of biotinylated proteins on streptavidin-coupled magnetic beads, LC-MS/MS; Mascot scores of the Myc-BirA* or BirA*-HA controls subtracted; hits common to N- and C-terminally tagged baits
BMP2K-S-BirA*-HA (human) = BMP2K-S-BirA*-HA (human) (UniProt Q9NSY1)
[1] = biological target: Myc-BirA*-BMP2K-S (human) (UniProt Q9NSY1)
BMP2K-L-BirA*-HA (human) = BMP2K-L-BirA*-HA (human) (UniProt Q9NSY1)
[2] = biological target: Myc-BirA*-BMP2K-L (human) (UniProt Q9NSY1)

Measured: binding

ARFGAP1 (from UniProt Q8N6T3 1-406)
binds: BMP2K-S-BirA*-HA (human) | [1]

B1: PICALM (protein, UniProt Q13492 1-652)
chain: MSGQSLTDRITAAQHSVTGSAVSKTVCKATTHEIMGPKKKHLDYLIQCTNEMNVNIPQLADSLFERTTNSSWVVVFKSLITTHHLMVYGNERFIQYLASRNTLFNLSNFLDKSGLQGYDMSTFIRRYSRYLNEKAVSYRQVAFDFTKVKRGADGVMRTMNTEKLLKTVPIIQNQMDALLDFNVNSNELTNGVINAAFMLLFKDAIRLFAAYNEGIINLLEKYFDMKKNQCKEGLDIYKKFLTRMTRISEFLKVAEQVGIDRGDIPDLSQAPSSLLDALEQHLASLEGKKIKDSTAASRATTLSNAVSSLASTGLSLTKVDEREKQAALEEEQARLKALKEQRLKELAKKPHTSLTTAASPVSTSAGGIMTAPAIDIFSTPSSSNSTSKLPNDLLDLQQPTFHPSVHPMSTASQVASTWGDPFSATVDAVDDAIPSLNPFLTKSSGDVHLSISSDVSTFTTRTPTHEMFVGFTPSPVAQPHPSAGLNVDFESVFGNKSTNVIVDSGGFDELGGLLKPTVASQNQNLPVAKLPPSKLVSDDLDSSLANLVGNLGIGNGTTKNDVNWSQPGEKKLTGGSNWQPKVAPTTAWNAATMAPPVMAYPATTPTGMIGYGIPPQMGSVPVMTQPTLIYSQPVMRPPNPFGPVSGAQIQFM
binds: all assays above

B2: AGFG1 (HRB) (protein, UniProt P52594 1-562)
chain: MAASAKRKQEEKHLKMLRDMTGLPHNRKCFDCDQRGPTYVNMTVGSFVCTSCSGSLRGLNPPHRVKSISMTTFTQQEIEFLQKHGNEVCKQIWLGLFDDRSSAIPDFRDPQKVKEFLQEKYEKKRWYVPPEQAKVVASVHASISGSSASSTSSTPEVKPLKSLLGDSAPTLHLNKGTPSQSPVVGRSQGQQQEKKQFDLLSDLGSDIFAAPAPQSTATANFANFAHFNSHAAQNSANADFANFDAFGQSSGSSNFGGFPTASHSPFQPQTTGGSAASVNANFAHFDNFPKSSSADFGTFNTSQSHQTASAVSKVSTNKAGLQTADKYAALANLDNIFSAGQGGDQGSGFGTTGKAPVGSVVSVPSQSSASSDKYAALAELDSVFSSAATSSNAYTSTSNASSNVFGTVPVVASAQTQPASSSVPAPFGATPSTNPFVAAAGPSVASSTNPFQTNARGATAATFGTASMSMPTGFGTPAPYSLPTSFSGSFQQPAFPAQAAFPQQTAFSQQPNGAGFAAFGQTKPVVTPFGQVAAAGVSSNPFMTGAPTGQFPTGSSSTNPFL
binds: all assays above

B3: NUMB (protein, UniProt P49757 1-651)
chain: MNKLRQSFRRKKDVYVPEASRPHQWQTDEEGVRTGKCSFPVKYLGHVEVDESRGMHICEDAVKRLKAERKFFKGFFGKTGKKAVKAVLWVSADGLRVVDEKTKDLIVDQTIEKVSFCAPDRNFDRAFSYICRDGTTRRWICHCFMAVKDTGERLSHAVGCAFAACLERKQKREKECGVTATFDASRTTFTREGSFRVTTATEQAEREEIMKQMQDAKKAETDKIVVGSSVAPGNTAPSPSSPTSPTSDATTSLEMNNPHAIPRRHAPIEQLARQGSFRGFPALSQKMSPFKRQLSLRINELPSTMQRKTDFPIKNAVPEVEGEAESISSLCSQITNAFSTPEDPFSSAPMTKPVTVVAPQSPTFQANGTDSAFHVLAKPAHTALAPVAMPVRETNPWAHAPDAANKEIAATCSGTEWGQSSGAASPGLFQAGHRRTPSEADRWLEEVSKSVRAQQPQASAAPLQPVLQPPPPTAISQPASPFQGNAFLTSQPVPVGVVPALQPAFVPAQSYPVANGMPYPAPNVPVVGITPSQMVANVFGTAGHPQAAHPHQSPSLVRQQTFPHYEASSATTSPFFKPPAQHLNGSAAFNGVDDGRLASADRHTEVPTGTCPVDPFEAQWAALENKSKQRTNPSPTNPFSSDLQKTFEIEL
binds: all assays above

B4: SEC24B (protein, UniProt O95487 1-1268)
chain: MSAPAGSSHPAASARIPPKFGGAAVSGAAAPAGPGAGPAPHQQNGPAQNQMQVPSGYGLHHQNYIAPSGHYSQGPGKMTSLPLDTQCGDYYSALYTVPTQNVTPNTVNQQPGAQQLYSRGPPAPHIVGSTLGSFQGAASSASHLHTSASQPYSSFVNHYNSPAMYSASSSVASQGFPSTCGHYAMSTVSNAAYPSVSYPSLPAGDTYGQMFTSQNAPTVRPVKDNSFSGQNTAISHPSPLPPLPSQQHHQQQSLSGYSTLTWSSPGLPSTQDNLIRNHTGSLAVANNNPTITVADSLSCPVMQNVQPPKSSPVVSTVLSGSSGSSSTRTPPTANHPVEPVTSVTQPSELLQQKGVQYGEYVNNQASSAPTPLSSTSDDEEEEEEDEEAGVDSSSTTSSASPMPNSYDALEGGSYPDMLSSSASSPAPDPAPEPDPASAPAPASAPAPVVPQPSKMAKPFGYGYPTLQPGYQNATAPLISGVQPSNPVYSGFQQYPQQYPGVNQLSSSIGGLSLQSSPQPESLRPVNLTQERNILPMTPVWAPVPNLNADLKKLNCSPDSFRCTLTNIPQTQALLNKAKLPLGLLLHPFRDLTQLPVITSNTIVRCRSCRTYINPFVSFIDQRRWKCNLCYRVNDVPEEFMYNPLTRSYGEPHKRPEVQNSTVEFIASSDYMLRPPQPAVYLFVLDVSHNAVEAGYLTILCQSLLENLDKLPGDSRTRIGFMTFDSTIHFYNLQEGLSQPQMLIVSDIDDVFLPTPDSLLVNLYESKELIKDLLNALPNMFTNTRETHSALGPALQAAFKLMSPTGGRVSVFQTQLPSLGAGLLQSREDPNQRSSTKVVQHLGPATDFYKKLALDCSGQQTAVDLFLLSSQYSDLASLACMSKYSAGCIYYYPSFHYTHNPSQAEKLQKDLKRYLTRKIGFEAVMRIRCTKGLSMHTFHGNFFVRSTDLLSLANINPDAGFAVQLSIEESLTDTSLVCFQTALLYTSSKGERRIRVHTLCLPVVSSLADVYAGVDVQAAICLLANMAVDRSVSSSLSDARDALVNAVVDSLSAYGSTVSNLQHSALMAPSSLKLFPLYVLALLKQKAFRTGTSTRLDDRVYAMCQIKSQPLVHLMKMIHPNLYRIDRLTDEGAVHVNDRIVPQPPLQKLSAEKLTREGAFLMDCGSVFYIWVGKGCDNNFIEDVLGYTNFASIPQKMTHLPELDTLSSERARSFITWLRDSRPLSPILHIVKDESPAKAEFFQHLIEDRTEAAFSYYEFLLHVQQQICK
binds: BMP2K-S-BirA*-HA (human) | [1]
